Measurements: US20120277171A1, “Warmi®, natural alternative for the treatment of menopause” (priority 2011, published 2012)
At least one compound was matched to its structure with a doubt left.

System: MCF-7 cells (human breast adenocarcinoma cell line)
Experiment: Proliferative effects on MCF-7 breast cancer cells
Assay type: cell-based
Settings: compared with control group; FIG. 36

SMILES: C[C@]12CC[C@@H]3c4ccc(O)cc4CC[C@H]3[C@@H]1CC[C@@H]2O [estradiol]
- proliferative effect on MCF-7 breast cancer cells (in words): increased proliferation
